Laboratory results published in patent US20080096210A1.
No constants are given. Whether binding was seen depends on the method and setting. Binding seen in cells or lysates may run through a third protein. Some entries that bind do so weakly or less than the wild type. Where a sequence is shown, tags or fusion partners need not be part of it.

Chains of the proteins cited; added tags and fusions are not shown.
UniProt P53350: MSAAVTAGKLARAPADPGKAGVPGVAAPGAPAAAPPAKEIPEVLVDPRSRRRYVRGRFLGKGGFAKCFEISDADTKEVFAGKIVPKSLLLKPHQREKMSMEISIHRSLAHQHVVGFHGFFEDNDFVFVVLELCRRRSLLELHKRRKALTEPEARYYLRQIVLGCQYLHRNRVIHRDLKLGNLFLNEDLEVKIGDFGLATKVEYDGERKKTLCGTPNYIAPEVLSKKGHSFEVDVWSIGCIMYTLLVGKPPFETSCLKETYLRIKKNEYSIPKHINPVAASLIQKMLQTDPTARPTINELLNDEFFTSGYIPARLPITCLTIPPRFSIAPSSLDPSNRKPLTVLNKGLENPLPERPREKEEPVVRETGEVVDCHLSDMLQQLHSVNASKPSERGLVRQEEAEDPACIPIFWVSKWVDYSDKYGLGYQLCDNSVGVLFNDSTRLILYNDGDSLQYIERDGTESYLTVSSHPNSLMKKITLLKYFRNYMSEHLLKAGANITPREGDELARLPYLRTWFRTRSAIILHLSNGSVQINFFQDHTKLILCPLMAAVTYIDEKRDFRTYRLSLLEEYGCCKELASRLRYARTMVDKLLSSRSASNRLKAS

Biological target: Human recombinant Plk1 (Invitrogen) (human) (UniProt P53350)
Experiment: in vitro kinase assay with recombinant His6-tagged RGC32 and human recombinant Plk1; binding concluded together with the co-immunoprecipitation

binding: binds
B1: recombinant His6-tagged RGC32 protein (pET-23d-RGC32, produced in Escherichia coli BL21-CodonPlus (DE3)) (protein, not shown: small tags and cut ends)
chain: MKPPAEDLSDALCEFDAVLADFASPFHERHFHYEEHLERMKRRSSASVSDSSGFSDSESADSLYRNSFSFSDEKLNSPTDSTPALLSATVTPQKAKLGDTKELEAFIADLDKTLASM
